Patent US20220106360A1 (UNIVERSITY OF PITTSBURGH OF THE COMMONWEALTH SYSTEM OF …, published 2022)
No constants are given. Whether binding was seen depends on the method and setting. Some binding calls cover weakened binding; strength is not graded here. Tags and fused reporters may be left off the sequences shown.

Molecular target: T1, VAPA 1-242 expressed from pEGFP-N1-VAPA; 1-242 (Addgene #18874) in HEK293 cells (UniProt Q9Z270)
T1 sequence (looked up): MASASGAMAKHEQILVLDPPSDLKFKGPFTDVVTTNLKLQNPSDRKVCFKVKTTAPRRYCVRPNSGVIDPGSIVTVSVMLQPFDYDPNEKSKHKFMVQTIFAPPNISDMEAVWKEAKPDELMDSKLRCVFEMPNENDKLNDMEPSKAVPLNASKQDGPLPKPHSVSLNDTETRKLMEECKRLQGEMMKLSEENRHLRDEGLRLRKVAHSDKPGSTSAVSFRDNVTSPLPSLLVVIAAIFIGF
Assay: peptide spot array (far western) with lysate of HEK293 cells expressing VAPA 1-242, anti-VAPA detection

binding: binds
Binder: EFFDAPE [canonical FFAT motif peptide (EFFDAPE)]
